Experimental data taken from PubChem BioAssay AID504648 (National Center for Advancing Translational Sciences (NCATS), 2011).
Hit rate of the full screen: of about 390,000 compounds, about 610 (0.16%) were called active. Inconclusive means that the source gave no clear call. Such entries were picked first, then a sample of the others. Calls come from the whole dose curve; as a rule, active = well fitted inhibition curve with a large enough effect; inconclusive = small, poorly fitted or top-dose-only effect, or effect the other way, or another doubt; inactive = no such curve, though single readings can be large or run the other way. Where the call is inconclusive, the potency comes from a doubtful curve fit.

Experiment: Nrf2 qHTS screen for inhibitors: counterscreen for cytotoxicity
Conditions: A549 ARE-Fluc cells, CellTiter-Fluor viability, 18-24 h; activity change, negative = cytotoxicity: at 46 µM (top of the series)
Source text: NIH Molecular Libraries Probe Production Network [MLPCN]
NIH Chemical Genomics Center [NCGC]
Assay Provider: Shyam Biswal, Johns Hopkins University
Nrf2 is a transcription factor that maintains cellular redox homoestasis and protects cells from xenobiotics. Nrf2 binds to the antioxidant response element (ARE) to induce gene expression of a broad spectrum of genes that encode for antioxidants. […] Finding a small molecule that act as an inhibitor of Nrf2 function would represent a novel therapeutic target that could lead to improvement in survival of patients undergoing chemo- and/or radio- therapy.
So here we implemented a counterscreen to weed out the cytotoxic compounds.
1. Shibata, T., et al., Genetic Alteration of Keap1 Confers Constitutive Nrf2 Activation and Resistance to Chemotherapy in Gallbladder Cancer. Gastroenterology, 2008.
2. Sjoblom, T., et al., The consensus coding sequences of human breast and colorectal cancers. Science, 2006. 314(5797): p. 268-74.
NCGC Assay Protocol Summary:
A concentration-response assay was performed with A549 ARE_Fluc cells which are suspended in 5% FBS OPTI-MEM. Five uL were dispensed into 1536-well white TC-treated plate using the Kalypsys dispenser to achieve a density of 5000 cells/well in all columns except column 1. The plate is incubated at 37deg C at 5% CO2 for 2 hours before 23 nL of compounds are added with the Kalypsys pin tool equipped with a 1,536-pin array containing 10-nL slotted pins (FP1S10, 0.457-mm diameter, 50.8 mm long; V&P Scientific). The control compounds Budesonide and Staurosporine are both added at a concentration of 2mM and Budesonide is also added as a 1:10 titration, starting at 200uM, to achieve dose-response. After an 18-24 hour incubation at 37deg C at 5% CO2, 5ul of medium is added to column 1. Afterwards 1ul of 5x of CellTiter-Fluor (Promega) is added to every well. The plate is then incubated at 37deg C at 5% CO2 for 30 minutes before they are read on the ViewLux (Perkin Elmer) for a fluorescent read Ex=405(10)/Em=525(10) for a 3 second exposure, 2x binning, and high gain. Then 3 uL of 3x BugLite is dispensed into all wells and the plate is incubated at ambient room temperature for 15 minutes. Afterwards another ViewLux read is performed using the clear filter to get a luminescent read with the settings of 40 second exposure, 2x binning, and high gain. Cytotoxicity is assessed through the first fluorescent read and then biochemical activity against Nrf2 is measured in the luminescent read.
% is set by controls: 0 for no effect and ±100 for the full control effect; potency is the fitted concentration of half-maximal effect.

Row | SMILES | activity change, negative = cytotoxicity | Potency
1 | COC(=O)c1ccc(Oc2nc(Nc3ccc(C)c(C)c3)nc(N(C)C)n2)cc1 | inactive: -19.8% | –
2 | COc1ccc(CSc2nc3ccncc3n2CC(=O)Nc2cc(C)cc(C)c2)cc1 | – | inconclusive: 25.9 µM [falling, partial curve, poor fit]
3 | O=C(c1ccc(Cl)c(Cl)c1)N1CCC(=O)N(C(COCc2cccc(Cl)c2)Cc2ccccc2)CC1 (stereo not given) | – | inconclusive: 16.4 µM [falling, single point]
4 | Cc1ccc(C(=O)NC(=C(Cl)Cl)S(=O)(=O)c2ccccc2)cc1 | – | inconclusive: 32.6 µM [falling, partial curve, poor fit]
5 | Fc1ccc(Nc2nc(SCc3ccccc3Cl)nc3ccccc23)cc1 | – | inconclusive: 18.4 µM [falling, single point]
6 | O=C(CCl)N(c1ccc(Cl)cc1)c1c[nH]c2ccccc12 | – | inconclusive: 29.1 µM [falling, single point]
7 | FC(F)(F)c1cc(N2CCOCC2)nc(-c2ccccc2)n1 | – | inconclusive: 4.11 µM [activator, partial curve, poor fit]
8 | CC(=O)Nc1ccc(N=Nc2ccc(O)cc2)cc1 | – | inconclusive: 25.9 µM [falling, single point]
9 | CCOc1cccc(C2/C(=C(/O)c3ccc4c(c3)CC(C)O4)C(=O)C(=O)N2Cc2ccncc2)c1 (stereo not given) | – | inconclusive: 6.51 µM [falling, single point]
10 | CCN1/C(=C(\O)c2ccccc2)C(=O)c2ccccc2S1(=O)=O | – | inconclusive: 23.1 µM [falling, single point]
11 | CS(=O)(=O)N1CCN(C(=O)c2cc(-c3cccs3)nc3ccccc23)CC1 | inactive: -9.65% | –
12 | CCc1sc2nc(SCC(=O)Nc3cc(C)on3)n(-c3cccc(OC)c3)c(=O)c2c1C | – | inconclusive: 23.1 µM [falling, single point]
13 | COc1ccc(CNC(=O)Cn2c(=O)nc(-c3ccccc3)c3cc(Cl)ccc32)cc1OC | – | inconclusive: 20.6 µM [falling, partial curve]
14 | Cc1ccc(Sc2ncnc3onc(C)c23)cc1 | inactive: 1.26% | –
15 | CN(C)C(=O)CCc1ccc2c3c([nH]c2c1)[C@]1(CCC2CCCC2)[C@@H](C(=O)N2CCOCC2)C[C@H](CC(=O)NCc2cccc(C(F)(F)F)c2)C(=O)N1CC3 | inactive: -29.3% | –
16 | COc1ccc(N(Cc2ccccc2)C(=O)c2nc(S(C)(=O)=O)ncc2Cl)cc1 | – | inconclusive: 29.1 µM [falling, single point]
17 | C=CC[C@H](CC(=O)N(CCO)Cc1ccccc1)C(=O)N[C@H](COC(=O)[C@@H](CC=C)Cc1ccc(F)cc1)Cc1ccccc1 | – | inconclusive: 29.1 µM [falling, single point]
18 | CC(=O)N1CCc2c(sc3nc(SCC(C)C)n(-c4ccc(C)c(Cl)c4)c(=O)c23)C1 | inactive: -7.49% | –
19 | CCOC(=O)N1CCN(S(=O)(=O)c2ccc(C(=O)NNc3nc4cc(C)cc(C)c4s3)cc2)CC1 | – | inconclusive: 20.6 µM [falling, single point]
20 | CC(C)(C)c1ccc(/C=N/NC(=O)Cc2c[nH]c3ccccc23)cc1 | – | inconclusive: 23.1 µM [falling, single point]

Looked up above.
Entry of O=C(CCl)N(c1ccc(Cl)cc1)c1c[nH]c2ccccc12 under Potency: inconclusive: 29.1 µM [falling, single point]
Entry of CCc1sc2nc(SCC(=O)Nc3cc(C)on3)n(-c3cccc(OC)c3)c(=O)c2c1C under Potency: inconclusive: 23.1 µM [falling, single point]

(listing goes on)

Row | SMILES | activity change, negative = cytotoxicity | Potency
21 | Nc1ccc(NC(=O)c2cccc(C(=O)Nc3ccc(N)cc3Cl)c2)c(Cl)c1 | – | inconclusive: 4.61 µM [falling, partial curve]
22 | CC(C)(C)[C@@H]1COC(=O)[C@@H](Cc2ccc(F)cc2)CC/C=C\C[C@@H](CC(=O)N(CCO)Cc2ccccc2)C(=O)N1 | – | inconclusive: 25.9 µM [falling, single point]
23 | CC(C)CNc1ncnc2[nH]ncc12 | inactive: 4.56% | –
24 | COc1cc(-c2nc(SCC(=O)Nc3ccc(C)cc3)c(-c3ccc(F)cc3)[nH]2)cc(OC)c1OC | – | inconclusive: 29.1 µM [falling, partial curve, poor fit]
25 | Cn1nc(-c2ccccn2)nc2c(=O)n(C)c(=O)nc1-2 | – | active: 3.26 µM
26 | O=C(N/N=C/c1ccc(O)c(O)c1O)/C(=C/c1ccc([N+](=O)[O-])cc1)NC(=O)c1ccccc1 | – | inconclusive: 23.1 µM [falling, partial curve, poor fit]
27 | CCOC(=O)/C=C/C(=O)Nc1cccc([N+](=O)[O-])c1 | – | inconclusive: 29.1 µM [falling, single point]
28 | OC(COc1cccc2ccccc12)CN1CCCC1 (stereo not given) | – | inconclusive: 13 µM [activator, partial curve]
29 | Cc1ccc(Cl)cc1NC(=O)C1COc2ccccc2O1 (stereo not given) | inactive: 2.14% | –
30 | CC1CCCN(c2cc(N(C)CCO)c([N+](=O)[O-])c3nonc23)C1 (stereo not given) | – | inconclusive: 14.6 µM [falling, partial curve, poor fit]
31 | Cc1cccc(-c2nn3c(=O)cc(CN4CCN(C(=O)c5ccccc5Br)CC4)nc3s2)c1 | inactive: -7.76% | –
32 | CC(C)(C)S(=O)(=O)/C(C#N)=N/Nc1ccc(S(C)(=O)=O)cc1 | – | inconclusive: 29.1 µM [falling, single point]
33 | CC(=O)c1sc(NC(=O)CCS(=O)(=O)c2ccc(C)cc2)nc1C | – | inconclusive: 18.4 µM [falling, partial curve, poor fit]
34 | Cc1cccc(N2CCN(C(=O)C3CCN(C(=O)c4cc5sccc5n4C)CC3)CC2)c1C | – | inconclusive: 29.1 µM [falling, single point]
35 | COC(=O)C1=C(C(=O)OC)[C@@H]2N(Cc3ccccc3)c3ccccc3[C@@]23C[C@@H](C(=O)OC)N(C(=O)c2cccs2)C3=N1 | – | inconclusive: 20.6 µM [falling, single point]
36 | S=C1Cc2ccccc2N1 | – | active: 16.4 µM
37 | CCC(C)Sc1cc(-c2nc3ccccn3c2NC2CCCCC2)ccc1OC (stereo not given) | – | inconclusive: 29.1 µM [falling, single point]
38 | O=C(NCCC1CCCCN1S(=O)(=O)c1ccccc1)C(=O)Nc1ccc(F)cc1F (stereo not given) | – | inconclusive: 32.6 µM [falling, partial curve, poor fit]
39 | CCN(CC)CCNc1ccc(CO)c2sc3ccccc3c(=O)c12 | – | active: 16.4 µM
40 | Cc1cc(=O)n(C(C)C(=O)N2CCCc3ccccc32)c2c1c(C)nn2-c1ccccc1 (stereo not given) | – | inconclusive: 18.4 µM [falling, single point]
